Reference: paper PMC8837792
Results are given in words; binding and its absence hold for the method and conditions named. In cells and extracts the contact can be indirect. Some entries that bind do so weakly or less than the wild type.

The chains behind the UniProt entries cited, without tags or fusion partners.
UniProt Q9Y297: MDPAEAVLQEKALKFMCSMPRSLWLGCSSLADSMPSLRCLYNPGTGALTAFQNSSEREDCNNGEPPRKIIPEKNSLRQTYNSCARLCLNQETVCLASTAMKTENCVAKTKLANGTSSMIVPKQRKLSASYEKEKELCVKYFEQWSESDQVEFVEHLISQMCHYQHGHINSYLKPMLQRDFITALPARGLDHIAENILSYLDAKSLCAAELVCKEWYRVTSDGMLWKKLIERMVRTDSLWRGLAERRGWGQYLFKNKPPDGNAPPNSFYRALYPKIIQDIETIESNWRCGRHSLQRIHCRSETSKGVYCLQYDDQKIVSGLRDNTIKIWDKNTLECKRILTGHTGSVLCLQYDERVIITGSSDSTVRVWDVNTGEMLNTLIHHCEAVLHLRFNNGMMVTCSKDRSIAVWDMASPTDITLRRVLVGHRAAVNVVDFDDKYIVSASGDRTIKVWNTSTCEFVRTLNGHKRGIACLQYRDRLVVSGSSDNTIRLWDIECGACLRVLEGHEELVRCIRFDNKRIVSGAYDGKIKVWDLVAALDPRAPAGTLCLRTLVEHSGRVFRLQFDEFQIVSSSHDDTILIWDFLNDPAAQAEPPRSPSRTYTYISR

How the values were obtained:
[1] = biological target: beta-transducin repeat containing E3 ubiquitin-protein ligase (βTrCP) (human (endogenous in A549 and H1299)) (UniProt Q9Y297); assay: co-IP; endogenous proteins in lysates of control, ISG15 overexpression or ISG15 knockout A549 and H1299 cells; IP with anti-YAP or anti-βTrCP antibodies cross-linked to protein A/G magnetic beads, 4 °C overnight; bait level adjusted to the same protein content; immunoblot
[2] = biological target: YAP (overexpressed in A549 cells that formed xenograft tumors) (UniProt P46937); assay: co-IP; lysates of xenograft tumors formed by WT or ISG15-/- A549 cells with YAP overexpression; YAP level adjusted to the same protein content; immunoblot
[3] = biological target: Yes-associated protein (YAP) (human (endogenous in A549 and H1299)) (UniProt P46937); assay: proximity ligation; Duolink In Situ Red Starter Kit; WT or ISG15-/- A549 cells fixed with 4% PFA; anti-YAP and anti-βTrCP primary antibodies; confocal microscope
[4] = biological target: YAP^K497R-HA (UniProt P46937); assay: co-IP; YAP-/- A549 cells reconstituted with YAP^WT-HA or YAP^K497R-HA, with or without ISG15; IP with anti-YAP antibodies; YAP level adjusted to the same protein content; immunoblot
[5] = biological target: YAP^WT-HA (UniProt P46937); assay: as above
[6] = biological target: Yes-associated protein (YAP) (human (endogenous in A549 and H1299)) (UniProt P46937); assay: co-IP; endogenous proteins in lysates of control, ISG15 overexpression or ISG15 knockout A549 and H1299 cells; IP with anti-YAP or anti-βTrCP antibodies cross-linked to protein A/G magnetic beads, 4 °C overnight; bait level adjusted to the same protein content; immunoblot

| binding [1] | binding [2] | binding [3] | binding [4] | binding [5] | binding [6] | Substance |
| --- | --- | --- | --- | --- | --- | --- |
| binds | – | – | – | – | – | Yes-associated protein (YAP) (from UniProt P46937 1-504) |
| – | binds | binds | binds | binds | binds | beta-transducin repeat containing E3 ubiquitin-protein ligase (βTrCP) (from UniProt Q9Y297 1-605) |
